## Primary screen of a compound library

The chains behind the UniProt entries cited, without tags or fusion partners. Residues count along the entry.
UniProt I6X8D2, whole entry: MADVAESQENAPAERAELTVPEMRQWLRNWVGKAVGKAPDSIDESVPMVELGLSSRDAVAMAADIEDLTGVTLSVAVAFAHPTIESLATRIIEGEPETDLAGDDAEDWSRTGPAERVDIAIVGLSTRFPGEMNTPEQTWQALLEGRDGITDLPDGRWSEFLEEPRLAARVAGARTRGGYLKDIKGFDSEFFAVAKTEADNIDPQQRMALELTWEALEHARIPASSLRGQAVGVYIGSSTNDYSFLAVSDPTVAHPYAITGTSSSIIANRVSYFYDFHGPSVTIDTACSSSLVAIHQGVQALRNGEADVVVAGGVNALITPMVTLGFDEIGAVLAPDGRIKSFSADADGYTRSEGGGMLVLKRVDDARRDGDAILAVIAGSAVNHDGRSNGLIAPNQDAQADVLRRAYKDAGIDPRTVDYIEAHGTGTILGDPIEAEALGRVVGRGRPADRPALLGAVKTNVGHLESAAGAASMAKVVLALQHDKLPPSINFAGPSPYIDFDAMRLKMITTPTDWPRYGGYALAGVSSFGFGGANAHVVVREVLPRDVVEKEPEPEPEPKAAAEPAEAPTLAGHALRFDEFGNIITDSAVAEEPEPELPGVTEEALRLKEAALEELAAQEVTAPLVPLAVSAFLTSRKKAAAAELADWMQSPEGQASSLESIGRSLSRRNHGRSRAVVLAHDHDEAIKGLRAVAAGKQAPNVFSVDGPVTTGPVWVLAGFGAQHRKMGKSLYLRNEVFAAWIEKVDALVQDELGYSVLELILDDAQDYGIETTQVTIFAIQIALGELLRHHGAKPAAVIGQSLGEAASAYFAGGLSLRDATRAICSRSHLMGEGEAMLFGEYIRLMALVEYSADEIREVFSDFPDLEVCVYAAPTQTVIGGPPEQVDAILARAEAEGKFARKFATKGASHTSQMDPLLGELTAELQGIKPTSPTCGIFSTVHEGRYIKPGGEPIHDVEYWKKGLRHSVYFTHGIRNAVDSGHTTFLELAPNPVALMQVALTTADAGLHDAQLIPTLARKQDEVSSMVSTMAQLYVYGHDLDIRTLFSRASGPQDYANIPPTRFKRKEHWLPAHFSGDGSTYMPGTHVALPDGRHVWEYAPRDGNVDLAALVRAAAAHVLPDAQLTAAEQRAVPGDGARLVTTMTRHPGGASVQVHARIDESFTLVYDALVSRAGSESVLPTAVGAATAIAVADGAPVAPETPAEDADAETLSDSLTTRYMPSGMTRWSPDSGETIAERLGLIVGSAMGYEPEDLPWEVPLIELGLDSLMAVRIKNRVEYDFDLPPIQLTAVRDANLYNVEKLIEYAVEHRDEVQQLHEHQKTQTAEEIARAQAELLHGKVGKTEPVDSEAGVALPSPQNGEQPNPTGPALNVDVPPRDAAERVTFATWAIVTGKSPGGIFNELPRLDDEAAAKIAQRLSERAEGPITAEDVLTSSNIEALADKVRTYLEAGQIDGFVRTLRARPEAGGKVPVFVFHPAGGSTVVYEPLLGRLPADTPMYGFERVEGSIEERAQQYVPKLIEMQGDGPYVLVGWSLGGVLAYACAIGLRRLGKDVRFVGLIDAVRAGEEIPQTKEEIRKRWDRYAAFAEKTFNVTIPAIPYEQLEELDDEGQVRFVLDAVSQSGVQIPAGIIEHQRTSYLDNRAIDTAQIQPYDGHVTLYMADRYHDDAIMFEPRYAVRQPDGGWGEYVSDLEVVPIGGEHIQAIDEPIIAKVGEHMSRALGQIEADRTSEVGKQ
UniProt A4I591, 1-473: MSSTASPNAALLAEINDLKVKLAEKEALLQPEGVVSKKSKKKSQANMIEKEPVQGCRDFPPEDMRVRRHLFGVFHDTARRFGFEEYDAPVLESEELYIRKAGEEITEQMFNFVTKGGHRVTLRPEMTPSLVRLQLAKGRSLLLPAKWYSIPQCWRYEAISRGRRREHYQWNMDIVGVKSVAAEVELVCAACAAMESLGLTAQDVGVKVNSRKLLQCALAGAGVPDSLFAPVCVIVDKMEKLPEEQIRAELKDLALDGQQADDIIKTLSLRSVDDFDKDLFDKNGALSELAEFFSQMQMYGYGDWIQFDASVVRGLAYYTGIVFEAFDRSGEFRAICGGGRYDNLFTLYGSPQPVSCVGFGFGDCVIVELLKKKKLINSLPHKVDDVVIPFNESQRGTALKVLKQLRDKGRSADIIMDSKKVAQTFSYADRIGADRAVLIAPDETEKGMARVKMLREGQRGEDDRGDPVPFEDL
UniProt P9WPC5, whole entry: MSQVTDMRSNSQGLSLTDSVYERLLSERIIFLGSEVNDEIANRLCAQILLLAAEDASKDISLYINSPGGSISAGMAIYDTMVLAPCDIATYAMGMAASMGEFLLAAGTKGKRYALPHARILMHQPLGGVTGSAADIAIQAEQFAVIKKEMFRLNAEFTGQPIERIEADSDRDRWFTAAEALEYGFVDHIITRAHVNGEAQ
UniProt P9WPC3, whole entry partner: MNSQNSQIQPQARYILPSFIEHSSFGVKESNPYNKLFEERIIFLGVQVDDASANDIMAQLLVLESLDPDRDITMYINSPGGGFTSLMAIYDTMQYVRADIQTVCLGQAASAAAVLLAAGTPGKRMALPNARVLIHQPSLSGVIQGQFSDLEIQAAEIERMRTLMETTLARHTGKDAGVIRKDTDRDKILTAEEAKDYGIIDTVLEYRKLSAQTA
UniProt P9WNZ1, whole entry: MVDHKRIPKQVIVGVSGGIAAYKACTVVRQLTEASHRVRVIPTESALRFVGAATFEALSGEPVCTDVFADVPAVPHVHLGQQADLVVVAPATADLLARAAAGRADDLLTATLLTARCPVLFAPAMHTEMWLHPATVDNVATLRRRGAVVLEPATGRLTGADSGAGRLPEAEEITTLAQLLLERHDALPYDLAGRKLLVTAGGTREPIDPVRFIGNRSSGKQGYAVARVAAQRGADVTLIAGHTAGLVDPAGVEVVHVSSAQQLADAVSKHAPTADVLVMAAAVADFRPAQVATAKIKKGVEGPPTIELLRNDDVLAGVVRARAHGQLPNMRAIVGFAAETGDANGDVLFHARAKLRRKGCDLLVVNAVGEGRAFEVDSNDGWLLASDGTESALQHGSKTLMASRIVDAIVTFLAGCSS

Results are given as percent effect.
How 0% and 100% were set is not recorded. Most values in the screen are low, and negative values occur.
The compounds are a random part of those screened.
Two or more numbers in one place are separate tests of the same structure; such repeats can differ widely.
A dash means the value is not listed here; it may have been measured.

Pks13 thioesterase: 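Enzyme assay of the thioesterase domain of polyketide synthase 13; the read-out is not stated. Target: Polyketide synthase Pks13, Mycobacterium tuberculosis (UniProt I6X8D2). Tested at 30 µM. The record gives no direction; the compounds picked for IC50 retests had high values, so higher reads as stronger inhibition. Of about 67,000 compounds tested this way, about 300 (0.46%) reached 50% or more in at least one test.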
LiHisRS: 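Enzyme assay of histidyl-tRNA synthetase; the read-out is not stated. Target: Histidine-tRNA ligase, Leishmania infantum (UniProt A4I591). Concentration: 30 µM. The record gives no direction; compounds that gave an IC50 in retests scored well above the rest, so higher reads as stronger inhibition. The assay is labelled LdHisRS but filed under L. infantum. About 69,000 compounds were tested under these conditions; 0.6% (about 410) showed 50% or more at least once.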
Leishmania in macrophages: 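Cell assay of Leishmania donovani living inside macrophages; the read-out is not stated. Concentration: 30 µM. The record gives no direction; compounds that gave an IC50 in retests scored well above the rest, so higher reads as stronger inhibition. Of about 69,000 compounds tested this way, about 1,000 (1.5%) reached 50% or more in at least one test.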
ClpP1P2: 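ClpP1P2, Mycobacterium tuberculosis (UniProt P9WPC5 and UniProt P9WPC3). Protease assay of ClpP1P2, read by the AMC dye that it sets free. Tested at 50 µM. Higher reads as stronger inhibition, judged from the few compounds that gave an IC50. Most other retested compounds had strongly negative values. About 69,000 compounds were tested under these conditions; 0.015% (about 10) showed 50% or more at least once.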
Toxoplasma: 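Assay of Toxoplasma gondii numbers, read through their beta-galactosidase reporter with a colour substrate. Compounds at 10 µM. The record gives no direction; the compounds picked for IC50 retests had high values, so higher reads as fewer parasites. Size under these conditions: about 67,000 compounds, about 260 of them at 50% or above in at least one test.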
CoaBC: 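Enzyme assay of CoaBC with a phosphate dye (Biomol Green) read at 650 nm. Target: Coenzyme A biosynthesis protein CoaBC, Mycobacterium tuberculosis (UniProt P9WNZ1). Tested at 30 µM. Direction is inferred from only a few compounds that gave an IC50; most scored high, so higher reads as stronger inhibition. Most strong results did not repeat in a second test. Size under these conditions: about 67,000 compounds, about 40 of them at 50% or above in at least one test.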

| # | compound | Pks13 thioesterase | LiHisRS | Leishmania in macrophages | ClpP1P2 | Toxoplasma | CoaBC |
|---|---|---|---|---|---|---|---|
| 1 | `CN1CC(=O)N(c2cccc(F)c2)CC12CCN(S(C)(=O)=O)C2.O=C(O)C(F)(F)F` (stereo not shown) | - | - | -22.41 | - | -0.4841 | - |
| 2 | `Cc1ccc(OCC(O)CN(C)CC(=O)Nc2cc(C)on2)c(C)c1` (stereo not shown) | - | 14.67 | -2.27 | 13.88 | 4.634 | -2.479 |
| 3 | `O=C(O)C(F)(F)F.O=C(c1ccccc1F)N1CCC2(CC1)CC(N1CCCC1)CO2` (stereo not shown) | - | - | 36.73 | - | -0.8336 | - |
| 4 | `Cc1noc(CNC(=O)NCCOc2ccc(Cl)cc2)n1` | -23.52 | 7.853 | 40.38 | -0.3188 | 2.684 | -3.913 |
| 5 | `O=C(NC[C@H]1CC[C@H](c2nnc(-c3cccnc3)o2)CC1)C1CC1` | -3.082 | -19.86 | 3.336 | -11.97 | 4.522 | -3.497 |
| 6 | `O=C(C1CC1)N1CC2(CCNCC2)c2cc(F)ccc21` | -27.63 | 17.48 | - | -2.718 | - | 4.835 |
| 7 | `Cn1cnc2c(-c3cccnc3)nc(C3CCNCC3)cc21` | -18.16 | 12 | - | 10.21 | - | 1.232 |
| 8 | `CCN(CC(=O)NC(C)C)S(=O)(=O)N1CCCCCC1` | -13.92 | 16.98 | -15.31 | - | 1.542 | 5.286 |
| 9 | `Cn1cc(CN2CCCC3(COCCN(c4cccnc4)C3)C2)cn1.O=C(O)C(F)(F)F.O=C(O)C(F)(F)F` (stereo not shown) | - | - | 18.66 | - | 1.784 | - |
| 10 | `Cc1cc(C2CCCN(C(=O)c3ccc(Cl)o3)C2)n[nH]1` (stereo not shown) | -2.401 | 6.14 | 16.2 | -3.661 | 6.322 | -1.695 |
| 11 | `Cc1csc(NC(=O)Cn2nc(C)ccc2=O)n1` | -8.057 | 23.66 | 5.403 | 5.114 | 8.362 | 4.602 |
| 12 | `CC(C)OC(=O)CC(NC(=O)CCn1cccn1)c1ccccc1` (stereo not shown) | 18.54 | 3.968 | -46.88 | -16.3 | 6.586 | 8.354 |
| 13 | `Cc1c(C)n(CC(O)CN2CCC(O)CC2)c2c(Cl)cccc12` (stereo not shown) | -10.01 | 13.56 | 21.57 | 0.6202 | 6.948 | -4.391 |
| 14 | `Cc1cccc(-c2ccc(C(=O)NCC3CCCOC3)c(=O)[nH]2)c1` (stereo not shown) | 13.97 | 12.5 | 6.897 | -24.54 | -6.205 | 10.31 |
| 15 | `NC(=O)COc1ccc(CNCc2ccc(Cl)c(F)c2)cc1` | -10.67 | 20.99 | -13.19 | -18.68 | 0.4577 | 1.786 |
| 16 | `COc1ccc2[nH]nc(CN3CCC(C(C)N(C)C)CC3)c2c1` (stereo not shown) | -6.519 | -49.46 | 33.29 | -0.1306 | 0.634 | -5.556 |
| 17 | `CCc1nnc(CN(C)c2nc(C(C)C)nc3c2cnn3C)o1` | -4.189 | 10.58 | 1.466 | -1.948 | 6.63 | 3.376 |
| 18 | `[H][C@]12CC[C@]([H])(CN(S(=O)(=O)N(C)C)C1)N(Cc1csc(C(C)=O)c1)C2` | - | - | 35.35 | - | -1.221 | - |
| 19 | `O=C(NC1CC1)[C@@]12CCO[C@@H]1CCN(Cc1ccc3c(c1)OCO3)C2` | -3.717 | 5.66 | - | 2.758 | - | 2.683 |
| 20 | `Cc1cncc(C(=O)N2CCCC(O)(CN(C)C)CC2)c1` (stereo not shown) | 3.124 | 15.62 | 0.09927 | 1.195 | 2.999 | 6.25 |
| 21 | `O=C(NCC(F)F)c1cnc(C2CCCN2)cn1` (stereo not shown) | -4.511 | 4.225 | - | -1.158 | - | -7.645 |
| 22 | `O=C(c1cccc2cccnc12)N1CCCC(n2ccnc2)C1` (stereo not shown) | -20.25 | 5.505 | 29.4 | -30.74 | -45.36 | 1.023 |
| 23 | `Cn1cc(C2CCCN2C(=O)c2cnc(-c3ccccn3)s2)cn1` (stereo not shown) | -1.486 | 18.09 | -25.63 | -0.9051 | -3.085 | 3.367 |
| 24 | `CSc1ccc(-c2nc(CN3CCNCC3C)c(C)o2)cc1` (stereo not shown) | -56.35 | 24.05 | 81.77 | -5.033 | 9.716 | 0.3802 |
| 25 | `O=C(c1cc(C2CC2)[nH]n1)N1CCN(Cc2ccc(Cl)cc2)CC1` | -10.75 | 10.71 | 33.04 | 2.833 | -19.83 | 3.509 |
| 26 | `c1ccc(N2CCC(NCc3cccc4cn[nH]c34)C2)cc1` (stereo not shown) | -11.07 | 8.219 | 29.03 | -7.033 | -13.25 | -1.594 |
| 27 | `c1cncc(CN2CCCC(c3nnc(-c4cnccn4)o3)C2)c1` (stereo not shown) | 2.894 | 4 | 18.47 | -13.72 | 1.821 | 3.098 |
| 28 | `O=c1cc(-c2ccccc2)nc2n1CCCCC2` | 8.946 | 4.348 | -39.42 | -1.733 | - | -0.8505 |
| 29 | `CCCN1CCc2nc(SCc3ccccc3)[nH]c(=O)c2C1` | 4.329 | 15.65 | -4.773 & -3.42 | 16.48 | 11.97 | -4.44 |
| 30 | `O=C(NCC1CC[C@@]2(CNCCOC2)O1)c1cccnc1` (stereo partly shown) | -43.39 | 14.04 | 28.07 & 14.09 | 3.73 | 24.5 | -9.937 |
| 31 | `COCC(=O)N1CC(c2ccnc(Nc3ccc(C)cn3)n2)C1` | -3.368 | 22.11 | 13.36 & 5.638 | 14.1 | -3.884 | 1.946 |
| 32 | `O=C1CCN(C(=O)C2(c3ccc(F)cc3)CCCCC2)CCN1` | -15.14 | 14.29 | 3.304 | 0.3904 | -5.712 | -0.2484 |
| 33 | `Cc1nc(C(C)C)sc1C(=O)NCCSc1nccn1C` | -18.87 | 19.35 | -12.41 | 2.295 | 10.97 | 6.173 |
| 34 | `Cc1cc(C(=O)N(C)CCCn2cccn2)nc(N)n1` | -2.09 | 6.122 | -5.109 | -13.86 | 9.329 | 7.107 |
| 35 | `CCS(=O)(=O)N1CCC2(CN(C(=O)c3cscn3)C2)C1` | -7.809 | 14 | -4.051 | -0.2344 | 3.527 | 0.2049 |
| 36 | `[H][C@@]12COC[C@@H](C(=O)NC)[C@]1([H])CN(C(=O)c1ccc(C)c(F)c1)C2` | - | - | 27.64 & 14.62 | - | 15.18 | - |
| 37 | `CCOC1CCN(C(=O)NCc2cccc(-n3cccn3)c2)CC1` | -3.461 | 7.965 | 8.13 | -15.06 | 5.578 | -1.869 |
| 38 | `CN1CCOC(CNCc2nc(-c3ccoc3)no2)C1` (stereo not shown) | -26.77 | 2.857 | 7.741 | -0.2394 | 14.62 | 7.991 |
| 39 | `Cc1cc2ccncc2n1CC1(O)CCN(C(=O)c2ccncc2)CC1` | 6.738 | 17.14 | 2.507 | -27.35 | -3.275 | -0.2427 |
| 40 | `O=C(c1ccco1)N1CCOCC2(C1)CN(c1ccccn1)C(=O)CO2` (stereo not shown) | -67.65 | 12.5 | 17.33 | -7.211 | -2.366 | -6.535 |
| 41 | `Cc1nc(N2CCCC2)nc2c1CN(C(=O)N(C)C)CC2` | -12.61 | 21.1 | 11.39 | 0.9127 | -12.37 | 3.294 |
| 42 | `Cn1cc(C(=O)N2CCOc3ccccc32)ccc1=O` | -18.1 | 4 | 14.76 | 5.617 | -5.989 | 1.653 |
| 43 | `CC(=O)N1CCCC2(CCN(C(=O)c3nccnc3N)CC2)C1` | -35.29 | 15.53 | 1.001 | -8.489 | -9.696 | 2.29 |
| 44 | `CCN(CC)S(=O)(=O)c1csc(C(=O)N2CCC(C(N)=O)CC2)c1` | -3.893 | 0 | -17.64 | -7.555 | 9.121 | 1.006 |
| 45 | `CCc1nnc(CN2CCCN(C(=O)c3ccccn3)CC2)o1` | -20.57 | 6.612 | 4.179 | -4.565 | 3.011 | 10.15 |
| 46 | `O=C(NCc1cccnc1N1CCCCC1)c1ccc2c(c1)OCO2` | 4.422 | 15.66 | 18.44 | -5.4 | -2.482 | 9.41 |
| 47 | `CCc1cc(NCc2cccnc2N2CCCCC2)n2ncnc2n1` | 3.992 | 11.2 | 7.373 | -28.38 | -14.17 | 4.39 |
| 48 | `COCCS(=O)(=O)NC(C)c1ccc(-n2nc(C)cc2C)cc1` (stereo not shown) | -3.164 | 14.04 | 12.97 | 14.23 | -1.321 | -1.613 |
| 49 | `OCCN1CCN(CC(O)c2ccc(OC(F)(F)F)cc2)CC1` (stereo not shown) | -11.97 | 11.4 | 19.69 | -31.29 | 14.79 | -0.5821 |
| 50 | `Cc1[nH]c(=O)sc1S(=O)(=O)N1CCCC1C(=O)NC1CC1` (stereo not shown) | -25.92 | 12.7 | 28.29 | 5.227 | 1.121 | 0.6483 |

Source: ChEMBL document CHEMBL3988442, “University of Dundee, Small-Polar-MMV Screening Library” (2021).